# Results: the supplement of paper PMC8728848
# Some of the results follow.
# How the values were obtained:
# Experiment in all cases: glycan array binding signal (z-score within array); higher = stronger binding
# Conditions in all cases: glycan notation: IUPAC condensed, linker removed
# [1] = molecular target: Neu5Ac(a2-3)Gal(b1-3)[Fuc(a1-4)]GlcNAc
# Outline: (§1)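 The binding signal is a Z-score computed within each array. Data were drawn from 3228 arrays in the Consortium for Functional Glycomics database, restricted to those with a known protein sequence. Scores were averaged over arrays of the same protein sequence at different concentrations or buffers, and over linkers, and negative values can be taken as non-binding.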
# [2] = molecular target: Neu5Ac(a2-3)Gal(b1-3)[Fuc(a1-4)]GlcNAc(b1-3)Gal(b1-3)[Fuc(a1-4)]GlcNAc
# Outline: as §1
# [3] = molecular target: Neu5Ac(a2-3)Gal(b1-3)[Fuc(a1-4)]GlcNAc(b1-3)Gal(b1-4)[Fuc(a1-3)]GlcNAc
# Outline: as §1
# [4] = molecular target: Neu5Ac(a2-3)Gal(b1-3)[GlcNAc(b1-6)]GalNAc
# Outline: as §1
# [5] = molecular target: Neu5Ac(a2-3)Gal(b1-3)[Neu5Ac(a2-6)]GalNAc
# Outline: as §1
# [6] = molecular target: Neu5Ac(a2-3)Gal(b1-3)[Neu5Ac(a2-6)]GlcNAc(b1-3)[Fuc(a1-3)[Gal(b1-4)]GlcNAc(b1-6)]Gal(b1-4)Glc
# Outline: as §1
# [7] = molecular target: Neu5Ac(a2-3)Gal(b1-3)]Neu5Ac(a2-3)Gal(b1-4)]GlcNAc
# Outline: as §1
# Neu5Ac(a2-3)Gal(b1-4)Glc = molecular target: Neu5Ac(a2-3)Gal(b1-4)Glc
# Outline: as §1
# [8] = molecular target: Neu5Ac(a2-3)Gal(b1-4)GlcNAc
# Outline: as §1
# [9] = molecular target: Neu5Ac(a2-3)Gal(b1-4)GlcNAc(b1-2)Man
# Outline: as §1
# [10] = molecular target: Neu5Ac(a2-3)Gal(b1-4)GlcNAc(b1-2)Man(a1-3)[GlcNAc(b1-4)][Neu5Ac(a2-3)Gal(b1-4)GlcNAc(b1-2)Man(a1-6)]Man(b1-4)GlcNAc(b1-4)GlcNAc
# Outline: as §1
# [11] = molecular target: Neu5Ac(a2-3)Gal(b1-4)GlcNAc(b1-2)Man(a1-3)[Neu5Ac(a2-3)Gal(b1-4)GlcNAc(b1-2)Man(a1-6)]Man(b1-4)GlcNAc(b1-4)GlcNAc
# Outline: as §1
# [12] = molecular target: Neu5Ac(a2-3)Gal(b1-4)GlcNAc(b1-2)Man(a1-3)[Neu5Ac(a2-3)Gal(b1-4)GlcNAc(b1-2)Man(a1-6)]Man(b1-4)GlcNAc(b1-4)[Fuc(a1-6)]GlcNAc
# Outline: as §1
# [13] = molecular target: Neu5Ac(a2-3)Gal(b1-4)GlcNAc(b1-2)Man(a1-3)[Neu5Ac(a2-6)Gal(b1-4)GlcNAc(b1-2)Man(a1-6)]Man(b1-4)GlcNAc(b1-4)GlcNAc
# Outline: as §1
# [14] = molecular target: Neu5Ac(a2-3)Gal(b1-4)GlcNAc(b1-2)[Neu5Ac(a2-3)Gal(b1-4)GlcNAc(b1-4)]Man(a1-3)[GlcNAc(b1-4)][Neu5Ac(a2-3)Gal(b1-4)GlcNAc(b1-2)[Neu5Ac(a2-3)Gal(b1-4)GlcNAc(b1-6)]Man(a1-6)]Man(b1-4)GlcNAc(b1-4)GlcNAc
# Outline: as §1
# [15] = molecular target: Neu5Ac(a2-3)Gal(b1-4)GlcNAc(b1-2)[Neu5Ac(a2-3)Gal(b1-4)GlcNAc(b1-4)]Man(a1-3)[GlcNAc(b1-4)][Neu5Ac(a2-3)Gal(b1-4)GlcNAc(b1-4)Man(a1-6)]Man(b1-4)GlcNAc(b1-4)GlcNAc
# Outline: as §1
# [16] = molecular target: Neu5Ac(a2-3)Gal(b1-4)GlcNAc(b1-2)[Neu5Ac(a2-3)Gal(b1-4)GlcNAc(b1-6)]Man(a1-6)[Neu5Ac(a2-3)Gal(b1-4)GlcNAc(b1-2)Man(a1-3)]Man(b1-4)GlcNAc(b1-4)GlcNAc
# Outline: as §1
# [17] = molecular target: Neu5Ac(a2-3)Gal(b1-4)GlcNAc(b1-2)[Neu5Ac(a2-3)Gal(b1-4)GlcNAc(b1-6)]Man(a1-6)[Neu5Ac(a2-3)Gal(b1-4)GlcNAc(b1-2)Man(a1-3)][GlcNAc(b1-4)]Man(b1-4)GlcNAc(b1-4)GlcNAc
# Outline: as §1
# [18] = molecular target: Neu5Ac(a2-3)Gal(b1-4)GlcNAc(b1-3)Gal
# Outline: as §1
# [19] = molecular target: Neu5Ac(a2-3)Gal(b1-4)GlcNAc(b1-3)Gal(b1-3)GlcNAc
# Outline: as §1
# [20] = molecular target: Neu5Ac(a2-3)Gal(b1-4)GlcNAc(b1-3)Gal(b1-4)GlcNAc
# Outline: as §1
# [21] = molecular target: Neu5Ac(a2-3)Gal(b1-4)GlcNAc(b1-3)Gal(b1-4)GlcNAc(b1-2)Man(a1-3)[Neu5Ac(a2-3)Gal(b1-4)GlcNAc(b1-3)Gal(b1-4)GlcNAc(b1-2)Man(a1-6)]Man(b1-4)GlcNAc(b1-4)GlcNAc
# Outline: as §1
# [22] = molecular target: Neu5Ac(a2-3)Gal(b1-4)GlcNAc(b1-3)Gal(b1-4)GlcNAc(b1-3)Gal(b1-4)GlcNAc
# Outline: as §1
# [23] = molecular target: Neu5Ac(a2-3)Gal(b1-4)GlcNAc(b1-3)Gal(b1-4)GlcNAc(b1-3)Gal(b1-4)GlcNAc(b1-2)Man(a1-3)[Neu5Ac(a2-3)Gal(b1-4)GlcNAc(b1-3)Gal(b1-4)GlcNAc(b1-3)Gal(b1-4)GlcNAc(b1-2)Man(a1-6)]GalNAc
# Outline: as §1
# [24] = molecular target: Neu5Ac(a2-3)Gal(b1-4)GlcNAc(b1-3)Gal(b1-4)GlcNAc(b1-3)GalNAc
# Outline: as §1
# [25] = molecular target: Neu5Ac(a2-3)Gal(b1-4)GlcNAc(b1-3)Gal(b1-4)GlcNAc(b1-3)[Neu5Ac(a2-3)Gal(b1-4)GlcNAc(b1-3)Gal(b1-4)GlcNAc(b1-6)]GalNAc
# Outline: as §1
# [26] = molecular target: Neu5Ac(a2-3)Gal(b1-4)GlcNAc(b1-3)Gal(b1-4)GlcNAc(b1-6)[Gal(b1-3)]GalNAc
# Outline: as §1
# [27] = molecular target: Neu5Ac(a2-3)Gal(b1-4)GlcNAc(b1-3)Gal(b1-4)[Fuc(a1-3)]GlcNAc
# Outline: as §1
# [28] = molecular target: Neu5Ac(a2-3)Gal(b1-4)GlcNAc(b1-3)GalNAc
# Outline: as §1
# [29] = molecular target: Neu5Ac(a2-3)Gal(b1-4)GlcNAc(b1-3)[Neu5Ac(a2-3)Gal(b1-4)GlcNAc(b1-6)]GalNAc
# Outline: as §1
binder,measurement,setting,value
PX9961W-pdi-543-27-543 (Parabacteroides distasonis) (protein) EGNATTTSYFLNDQQAIDAIDGLYERFHQEGCYGRELFWEQGAACDIVWGRTRGYNSLATLAYTGDESPLRDVFSRMYSTMSRANWIIQELVKKEKGTTLTAVEKRSLGEAYFSRGWAHYLIAYRYGTDKQGVPFVRYEDFPDDYDNSIPPQQATVMDNYKLIIEDMDKAIAYLPIFESYDADNRGRAHQAAAVAFKAKTYAYWATWDATQWNNVIEMVNQLENNYNRDLAPTFAELFSSDLKDYWNAEYLWTIPSIGGALPGGTEFPGIILENKGWGKYNGWGQMKPSYDIYEEMAKDGKGNDRLVRSILEYNQEFPFFGETRKFWSTSDLEAGFMINKYMDAFKYSDPVGEGAVSANGDWPTVRVNFPIIRFAEMLLFRAEAYLMTGQADKATADINRIRLRSNLTPLTGTATMKDLYHERRCELAFEFTDHLFDLKRWNRSSNADIKTLADKELNAHPRIRRYEDRANPESAFTIIGYEDYTNKNAYQAHMMVFPYPSEEITKSNGQLKQNEGY,glycan array binding signal (z-score),[1],-0.779
same,glycan array binding signal (z-score),[2],2.45
same,glycan array binding signal (z-score),[3],1.28
same,glycan array binding signal (z-score),[4],-0.924
same,glycan array binding signal (z-score),[5],-1.05
same,glycan array binding signal (z-score),[6],-0.292
same,glycan array binding signal (z-score),[7],-1.15
same,glycan array binding signal (z-score),Neu5Ac(a2-3)Gal(b1-4)Glc,0.071
same,glycan array binding signal (z-score),[8],-0.445
same,glycan array binding signal (z-score),[9],1.56
same,glycan array binding signal (z-score),[10],-0.853
same,glycan array binding signal (z-score),[11],-0.589
same,glycan array binding signal (z-score),[12],-0.066
same,glycan array binding signal (z-score),[13],0.694
same,glycan array binding signal (z-score),[14],-0.466
same,glycan array binding signal (z-score),[15],-0.497
same,glycan array binding signal (z-score),[16],1.21
same,glycan array binding signal (z-score),[17],0.163
same,glycan array binding signal (z-score),[18],-0.293
same,glycan array binding signal (z-score),[19],-0.968
same,glycan array binding signal (z-score),[20],-0.712
same,glycan array binding signal (z-score),[21],-0.685
same,glycan array binding signal (z-score),[22],-0.243
same,glycan array binding signal (z-score),[23],0.571
same,glycan array binding signal (z-score),[24],-0.203
same,glycan array binding signal (z-score),[25],0.661
same,glycan array binding signal (z-score),[26],-0.31
same,glycan array binding signal (z-score),[27],0.499
same,glycan array binding signal (z-score),[28],-0.939
same,glycan array binding signal (z-score),[29],-0.167

# Quoted at random: 2 records from the list.
binder,measurement,setting,value
PX9961W-pdi-543-27-543 (Parabacteroides distasonis) (protein) EGNATTTSYFLNDQQAIDAIDGLYERFHQEGCYGRELFWEQGAACDIVWGRTRGYNSLATLAYTGDESPLRDVFSRMYSTMSRANWIIQELVKKEKGTTLTAVEKRSLGEAYFSRGWAHYLIAYRYGTDKQGVPFVRYEDFPDDYDNSIPPQQATVMDNYKLIIEDMDKAIAYLPIFESYDADNRGRAHQAAAVAFKAKTYAYWATWDATQWNNVIEMVNQLENNYNRDLAPTFAELFSSDLKDYWNAEYLWTIPSIGGALPGGTEFPGIILENKGWGKYNGWGQMKPSYDIYEEMAKDGKGNDRLVRSILEYNQEFPFFGETRKFWSTSDLEAGFMINKYMDAFKYSDPVGEGAVSANGDWPTVRVNFPIIRFAEMLLFRAEAYLMTGQADKATADINRIRLRSNLTPLTGTATMKDLYHERRCELAFEFTDHLFDLKRWNRSSNADIKTLADKELNAHPRIRRYEDRANPESAFTIIGYEDYTNKNAYQAHMMVFPYPSEEITKSNGQLKQNEGY,glycan array binding signal (z-score),[25],0.661
same,glycan array binding signal (z-score),[8],-0.445
